# No constants are given. Whether binding was seen depends on the method and setting. Some binding calls cover weakened binding; strength is not graded here.
# Chains of the proteins cited; added tags and fusions are not shown. Lines headed by an entry give the natural chain unless they say otherwise; changes in a name come on top. A line that says so, or that is headed by a name, gives the form on record, which may keep a tag or linker.
# human CTLA4 (Y201 mutated to valine) on stably transfected CHO-K1 cells (P16410, form named): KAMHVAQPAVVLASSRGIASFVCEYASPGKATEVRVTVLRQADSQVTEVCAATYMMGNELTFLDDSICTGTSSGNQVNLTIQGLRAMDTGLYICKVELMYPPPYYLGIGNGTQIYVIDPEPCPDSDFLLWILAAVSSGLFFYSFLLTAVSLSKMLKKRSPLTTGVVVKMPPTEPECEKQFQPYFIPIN
# Molecular target: human CTLA4 (Y201 mutated to valine) on stably transfected CHO-K1 cells (human) (UniProt P16410)
# Experiment: FACS direct binding titration on CHO cells with human CTLA4; column in nM
binder,measurement,value
4CTLAPMP08E5 (VHH) VHH: EVQLVESGGGLVQPGGSLRLSCAASRDIFTRNIMGWYRQAPGKQRDLVASITPGGNMYYADSVKGRFTISRDGAKNTVYLQMNSLKPEDTAVYYCNAHGSILLDRSNYWGQGTQVTVSS,binding,binds

# Source: patent US20160280786A1
